Assay results taken from paper PMC12295781.
These are yes or no findings as the source states them, for the method shown. Binding seen in cells or lysates may run through a third protein. Some binding calls cover weakened binding; strength is not graded here.

Protein sequences, listed by entry. Tags and fused reporters are not part of them.
UniProt Q5JSL3: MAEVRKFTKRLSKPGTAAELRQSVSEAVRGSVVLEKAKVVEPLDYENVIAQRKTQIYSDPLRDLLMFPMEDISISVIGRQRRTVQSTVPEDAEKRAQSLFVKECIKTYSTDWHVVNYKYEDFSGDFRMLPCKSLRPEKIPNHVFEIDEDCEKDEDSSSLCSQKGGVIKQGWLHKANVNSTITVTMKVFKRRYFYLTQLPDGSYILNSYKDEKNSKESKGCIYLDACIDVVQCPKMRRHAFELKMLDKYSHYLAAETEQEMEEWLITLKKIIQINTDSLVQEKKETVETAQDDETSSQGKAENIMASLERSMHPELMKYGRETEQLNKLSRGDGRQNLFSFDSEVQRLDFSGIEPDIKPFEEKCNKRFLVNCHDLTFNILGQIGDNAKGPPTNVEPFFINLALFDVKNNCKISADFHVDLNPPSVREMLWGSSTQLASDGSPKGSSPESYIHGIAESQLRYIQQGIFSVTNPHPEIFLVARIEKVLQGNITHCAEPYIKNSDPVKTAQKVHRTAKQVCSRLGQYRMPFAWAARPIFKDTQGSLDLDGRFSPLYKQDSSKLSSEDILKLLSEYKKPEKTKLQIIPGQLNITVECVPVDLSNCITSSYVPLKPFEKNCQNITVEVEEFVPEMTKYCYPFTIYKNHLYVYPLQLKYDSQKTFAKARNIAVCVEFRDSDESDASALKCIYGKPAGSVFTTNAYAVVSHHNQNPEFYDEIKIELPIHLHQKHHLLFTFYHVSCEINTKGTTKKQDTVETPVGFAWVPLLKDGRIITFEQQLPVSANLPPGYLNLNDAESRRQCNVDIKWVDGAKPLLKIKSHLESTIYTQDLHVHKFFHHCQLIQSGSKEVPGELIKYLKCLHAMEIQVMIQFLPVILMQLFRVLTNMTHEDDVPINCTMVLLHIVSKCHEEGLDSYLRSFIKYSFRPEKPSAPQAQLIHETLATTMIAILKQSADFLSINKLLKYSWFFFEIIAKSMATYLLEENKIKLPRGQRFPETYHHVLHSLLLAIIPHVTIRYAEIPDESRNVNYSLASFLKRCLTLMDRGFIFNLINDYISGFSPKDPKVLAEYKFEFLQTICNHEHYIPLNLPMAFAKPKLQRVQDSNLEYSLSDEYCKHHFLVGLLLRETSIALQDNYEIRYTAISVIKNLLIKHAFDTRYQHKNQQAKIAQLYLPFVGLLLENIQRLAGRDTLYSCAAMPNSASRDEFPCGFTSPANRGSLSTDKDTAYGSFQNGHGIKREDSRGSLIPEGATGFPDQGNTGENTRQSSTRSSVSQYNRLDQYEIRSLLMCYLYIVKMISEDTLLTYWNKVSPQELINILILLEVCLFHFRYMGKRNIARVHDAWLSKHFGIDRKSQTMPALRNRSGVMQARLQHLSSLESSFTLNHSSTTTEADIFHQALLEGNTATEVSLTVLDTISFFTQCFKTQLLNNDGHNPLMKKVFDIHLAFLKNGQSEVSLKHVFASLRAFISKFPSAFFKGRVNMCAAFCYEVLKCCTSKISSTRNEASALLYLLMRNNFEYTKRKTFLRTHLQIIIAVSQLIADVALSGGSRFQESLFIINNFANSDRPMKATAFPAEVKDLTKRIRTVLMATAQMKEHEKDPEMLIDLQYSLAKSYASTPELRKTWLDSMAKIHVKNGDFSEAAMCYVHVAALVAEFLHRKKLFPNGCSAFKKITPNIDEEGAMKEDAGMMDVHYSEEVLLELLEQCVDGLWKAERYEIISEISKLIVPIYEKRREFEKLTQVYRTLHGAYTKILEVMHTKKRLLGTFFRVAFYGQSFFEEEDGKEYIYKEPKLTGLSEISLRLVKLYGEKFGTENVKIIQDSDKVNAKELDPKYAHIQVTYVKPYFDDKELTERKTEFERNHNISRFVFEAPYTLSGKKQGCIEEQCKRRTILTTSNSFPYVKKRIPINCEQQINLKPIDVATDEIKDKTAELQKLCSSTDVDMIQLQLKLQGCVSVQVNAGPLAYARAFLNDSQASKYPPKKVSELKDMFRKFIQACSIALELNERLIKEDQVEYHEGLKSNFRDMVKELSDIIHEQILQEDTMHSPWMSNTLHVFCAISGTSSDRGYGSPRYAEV
UniProt P03146: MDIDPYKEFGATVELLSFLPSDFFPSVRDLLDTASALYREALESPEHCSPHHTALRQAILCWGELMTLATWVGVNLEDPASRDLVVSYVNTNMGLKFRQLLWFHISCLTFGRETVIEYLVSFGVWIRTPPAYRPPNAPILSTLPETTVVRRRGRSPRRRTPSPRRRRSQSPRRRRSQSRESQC
UniProt P35222: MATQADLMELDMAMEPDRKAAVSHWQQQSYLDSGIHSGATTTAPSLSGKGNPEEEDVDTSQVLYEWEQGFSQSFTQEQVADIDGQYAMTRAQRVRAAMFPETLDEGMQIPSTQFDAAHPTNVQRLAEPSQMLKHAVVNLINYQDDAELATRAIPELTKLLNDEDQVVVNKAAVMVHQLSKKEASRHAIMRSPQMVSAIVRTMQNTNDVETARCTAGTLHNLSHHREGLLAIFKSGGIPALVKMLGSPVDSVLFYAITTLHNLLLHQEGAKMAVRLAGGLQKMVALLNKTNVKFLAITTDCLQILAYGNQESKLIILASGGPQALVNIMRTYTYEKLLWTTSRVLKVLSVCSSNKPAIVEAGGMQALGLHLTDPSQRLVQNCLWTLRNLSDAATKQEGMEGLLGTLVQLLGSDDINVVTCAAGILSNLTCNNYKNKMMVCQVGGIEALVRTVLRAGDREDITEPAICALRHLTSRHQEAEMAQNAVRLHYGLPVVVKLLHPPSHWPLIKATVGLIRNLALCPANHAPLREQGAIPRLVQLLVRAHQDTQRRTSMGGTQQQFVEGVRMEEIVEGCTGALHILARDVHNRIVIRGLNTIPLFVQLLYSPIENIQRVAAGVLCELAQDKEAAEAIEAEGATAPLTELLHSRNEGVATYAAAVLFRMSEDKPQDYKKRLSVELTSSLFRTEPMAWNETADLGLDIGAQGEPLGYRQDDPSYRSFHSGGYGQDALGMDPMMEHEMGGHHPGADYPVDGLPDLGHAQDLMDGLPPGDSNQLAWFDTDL

Columns and labels:
Halo-DOCK11 = Halo-DOCK11 (UniProt Q5JSL3); assay: co-IP; HepG2-NTCP-C4 cells transfected with Halo-DOCK11 plasmid, with or without HBV infection (virions from HepAD38 cells); lysate in 25 mM Tris, 150 mM NaCl, 1 mM EDTA, 1% NP-40, 5% glycerol, pH 7.4; Halo-Trap magnetic particles M270, 4 °C, 1 h; immunoblot for Halo, β-catenin, HBc
[1] = biological target: dedicator of cytokinesis 11 (DOCK11), endogenous (human (endogenous in PXB cells and HepG2.2.15 cells)) (UniProt Q5JSL3); assay: co-IP; whole-cell extracts of HBV-infected PXB cells or of HepG2.2.15 cells incubated with 10 μg anti-DOCK11 antibody (A301-638A, Bethyl) overnight at 4 °C, Protein G magnetic beads 3 h at 4 °C, four washes (Universal Magnetic CO-IP kit); Western blot for β-catenin

**Q.** With “HBV capsid protein (HBc) (from UniProt P03146 1-183)” as the substance, how does the binding (Halo-DOCK11) read?
**A.** binds

**Q.** How did the binding [1] turn out when “β-catenin, endogenous in HBV-infected PXB cells (from UniProt P35222 1-781)” was run?
**A.** binds
